Assay results as given in PubChem BioAssay AID504834 (National Center for Advancing Translational Sciences (NCATS), 2011).
Among all 320,000 compounds or so, about 22,000 (6.9%) were called active. This list was built around the results that the source calls inconclusive (neither active nor inactive); the mix of calls is not that of the screen. Calls follow the shape of the dose curve; as a rule, active = well fitted inhibition curve with a large enough effect; inconclusive = small, poorly fitted or top-dose-only effect, or another doubt; inactive = no such curve, though single readings can be large or run the other way. Where the call is inconclusive, the potency comes from a doubtful curve fit.

Assay: Primary qHTS for delayed death inhibitors of the malarial parasite plastid, 96 hour incubation
Conditions: P. falciparum luciferase reporter growth; series mostly up to 28.7 µM; activity change, negative = inhibition: at the top concentration
In short: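 96 h incubation, 37 C, 5% CO2, of luciferase-reporter P. falciparum-infected RBCs (2% hematocrit, 0.05% parasitemia final) with test compounds; endpoint luminescence.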
% is scaled to controls: 0 for no effect and ±100 for the full control effect; potency is read from the fitted curve at half-maximal effect.

| Compound | activity change, negative = inhibition | Potency |
| --- | --- | --- |
| Cc1ccc2[nH]c(O)c(N=NC(=O)C3CC3c3ccccc3)c2c1Br (centres undefined) | inactive: -15% | – |
| CC1CCN(S(=O)(=O)c2ccc(NC(=O)N3c4ccccc4Sc4ccccc43)cc2)CC1 | – | inconclusive: 0.465 µM [inhibitor, full curve, poor fit] |
| COC(=O)c1ccccc1S(=O)(=O)N1CCC(C(=O)OC(C)C(=O)Nc2ccccc2OC)CC1 (centres undefined) | – | inconclusive: 18.5 µM [inhibitor, single point] |
| O=C(c1cccc(S(=O)(=O)N2CCCCC2)c1)N1CCc2ccccc21 | – | active: 1.17 µM |
| CC(=O)N=c1n(C)c2ccccc2n1CCOc1ccccc1 | – | inconclusive: 9.28 µM [inhibitor, partial curve, poor fit] |
| O=C(OCc1nnc(-c2ccccc2)o1)c1ccc2c(c1)C(=O)N(CCc1ccccc1)C2=O | – | inconclusive: 7.38 µM [inhibitor, partial curve, poor fit] |
| COC(=O)CC1NCCc2cc(OC)c(OC)cc21 (centres undefined) | inactive: 23% | – |
| CC1=C(C(=O)OCC2CCCCC2)C(c2ccc(F)cc2)NC(=O)N1 (centres undefined) | inactive: 1.16% | – |
| COc1cc(OC)cc(C(=O)N2CCN(Cc3ccccc3Br)CC2)c1 | inactive: 2.88% | – |
| COc1cc(/C=C2\SC(=S)N(CC(=O)O)C2=O)ccc1OS(=O)(=O)c1ccc(C)cc1 | – | inconclusive: 18.5 µM [inhibitor, single point] |
| Cc1ccc(NNC(=O)c2ccno2)cc1Cl | – | inconclusive: 10.4 µM [inhibitor, partial curve] |
| CC1=C(C(=O)OCC(C)C)C(c2ccsc2)C2=C(CCCC2=O)N1 (centres undefined) | – | active: 8.28 µM |
| COC(OC)c1ccnc(-c2ccc(OC(=O)c3ccc(F)cc3)cc2)n1 | inactive: 81.9% | – |
| NC(=O)C1CCN(CCS(=O)(=O)c2ccc(Cl)cc2)CC1 | inactive: 8.27% | – |
| CCCNC(=O)CC(NS(=O)(=O)c1ccc(NC(C)=O)cc1)C(C)C (centres undefined) | – | inconclusive: 10.4 µM [inhibitor, partial curve, poor fit] |
| CCOC(=O)c1ccc(N2CSC3=C(C#N)C(c4ccc(OC)cc4OC)CC(=O)N3C2)cc1 (centres undefined) | – | inconclusive: 14.7 µM [inhibitor, partial curve, poor fit] |
| O=C(COC(=O)CNC(=O)C1CCCCC1)NCc1ccccc1 | inactive: 24.4% | – |
| O=C(CN1C(=O)/C(=C/c2ccccc2)SC1=S)NC1CCS(=O)(=O)C1 (centres undefined) | inactive: 17.6% | – |
| CCCSc1nc(SCC(=O)NCc2ccccc2)c2c3c(sc2n1)COC(C)(CC)C3 (centres undefined) | – | active: 14.7 µM |
| Cn1cc(Cl)c(C(=O)OCC(=O)c2ccccc2)n1 | – | active: 13.1 µM |
| COCCN(C(=O)COC(=O)C1CCC(C(C)(C)C)CC1)c1c(N)n(Cc2ccccc2)c(=O)[nH]c1=O (centres undefined) | – | inconclusive: 10.4 µM [inhibitor, partial curve] |
| Cc1nn(C)c(C)c1S(=O)(=O)N(CC(=O)Nc1nccs1)c1ccc(C(C)C)cc1 | – | inconclusive: 18.5 µM [inhibitor, single point] |
| CCOC(=O)c1c(C)[nH]c(C)c1C(=O)CSc1nnnn1-c1ccccc1 | – | active: 11.7 µM |

| Compound | activity change, negative = inhibition | Potency |
| --- | --- | --- |
| Cc1ccsc1-c1nc(CSCC(=O)N2CCN(c3ccccc3)CC2)c(C)o1 | – | inconclusive: 18.5 µM [inhibitor, partial curve, poor fit] |
| CC(C)(C)[C@@H]1C=C(C(=O)NC2CC2)O[C@H](OCc2ccc(CO)cc2)C1 | – | inconclusive: 14.7 µM [inhibitor, partial curve, poor fit] |
| Cc1cc(C)n(CCCNC(=O)C2CCC(=O)N(CCc3ccc(Cl)cc3)C2)n1 (centres undefined) | – | inconclusive: 18.5 µM [inhibitor, single point] |
| COc1ccc(OCC(=O)Nc2ccc(Cl)cc2C(=O)c2ccccc2)cc1 | – | inconclusive: 14.7 µM [inhibitor, partial curve, poor fit] |
| COc1ccc(N(CC(=O)N2CCOCC2)S(C)(=O)=O)cc1 | – | inconclusive: 9.28 µM [inhibitor, partial curve, poor fit] |
| N/C(=N\OC(=O)c1ccco1)c1cccc([N+](=O)[O-])c1 | inactive: 2.3% | – |
| O=C(/C=C/Nc1ccc(F)cc1F)c1ccco1 | inactive: -35% | – |
| Cc1nnsc1C(=O)N1CCCC(Nc2ccc(C(C)C)cc2)C1 (centres undefined) | – | inconclusive: 10.4 µM [inhibitor, partial curve, poor fit] |
| CCC(=O)Nc1cccc(-c2cn3ccccc3n2)c1 | – | active: 11.7 µM |
| CCN1CNC(=S)N(CCc2ccccc2)C1 | – | inconclusive: 9.28 µM [inhibitor, single point] |
| Cc1ccccc1-n1ncc2c(SCC(=O)N3c4ccccc4CC3C)ncnc21 (centres undefined) | – | inconclusive: 0.0657 µM [inhibitor, full curve, poor fit] |
| O=C(NCC1CCCO1)c1ccc(/C=N/O)nc1 (centres undefined) | – | active: 14.7 µM |
| CCCCN(C)CCCNC(=O)c1ccc2c(c1)NC(=O)C(N1CCOCC1)S2 (centres undefined) | – | inconclusive: 13.1 µM [inhibitor, single point] |
| CCOC(=O)C(C(=O)Nc1ccccc1C)C1CCCCC1 (centres undefined) | – | inconclusive: 11.7 µM [inhibitor, partial curve, poor fit] |
| Cc1cccc2c1NC(=O)C21OCC(CO)([N+](=O)[O-])CO1 (centres undefined) | – | active: 2.62 µM |
| CCN(CC1CCCO1)C(=O)c1cc(COc2cc(C)c(Cl)c(C)c2)on1 (centres undefined) | – | active: 11.7 µM |
| CCCCN(C(=O)CCNC(=O)NC12CC3CC(CC(C3)C1)C2)c1c(N)n(CCC)c(=O)[nH]c1=O | – | inconclusive: 13.1 µM [inhibitor, single point] |
| CC(=O)n1cc(/C=N/NC(=O)c2ccc(Cl)cc2)c2ccccc21 | – | inconclusive: 18.5 µM [inhibitor, single point] |
| COc1cccc(C(=O)NNC(=O)c2ccc(NS(=O)(=O)c3cccs3)cc2)c1OC | – | active: 2.08 µM |
| COC(=O)Cn1c(C)c(C#N)c2ccccc21 | inactive: -7.82% | – |
| CC[C@@]12C(=O)N(c3ccccc3)C(=O)N1[C@H](c1cccc(C)c1)[C@@H]1C(=O)N(Cc3ccccc3)C(=O)[C@@H]12 | – | active: 6.57 µM |
| CCCC(C)C(=O)Nc1nc(C)c(-c2csc(Nc3ccc(Cl)cc3)n2)s1 (centres undefined) | – | inconclusive: 8.28 µM [inhibitor, single point] |
| O=[N+]([O-])c1cc(Cl)cc(/C=N\Nc2ccccn2)c1O | – | inconclusive: 4.15 µM [inhibitor, single point] |

4 compounds from above, arranged by molecular weight, low to high:

| Compound | activity change, negative = inhibition | Potency |
| --- | --- | --- |
| O=C(/C=C/Nc1ccc(F)cc1F)c1ccco1 | inactive: -35% | – |
| CC1=C(C(=O)OCC(C)C)C(c2ccsc2)C2=C(CCCC2=O)N1 (centres undefined) | – | active: 8.28 µM |
| Cc1ccccc1-n1ncc2c(SCC(=O)N3c4ccccc4CC3C)ncnc21 (centres undefined) | – | inconclusive: 0.0657 µM [inhibitor, full curve, poor fit] |
| O=C(OCc1nnc(-c2ccccc2)o1)c1ccc2c(c1)C(=O)N(CCc1ccccc1)C2=O | – | inconclusive: 7.38 µM [inhibitor, partial curve, poor fit] |

Next part

| Compound | activity change, negative = inhibition | Potency |
| --- | --- | --- |
| CCC(/C=C1\Sc2ccc(OC)cc2N1CCO)=C\c1sc2ccc(OC)cc2[n+]1CCO | – | active: 7.38 µM |
| Cc1nc(-c2ccc(F)cc2)c(CC(=O)N2CCN(S(=O)(=O)c3ccccc3Br)CC2)s1 | – | active: 8.28 µM |
| COC(=O)C1=C(c2ccc(OCc3ccccc3)cc2)C[C@@H]2CC[C@H]1N2C(=O)NCc1cccc(OC)c1 | – | inconclusive: 1.17 µM [inhibitor, full curve, poor fit] |
| CCc1c(O)nc2ccccn2c1=O | – | inconclusive: 2.08 µM [inhibitor, partial curve, poor fit] |
| CC(=O)NC(=S)NNC(=O)COc1ccc([N+](=O)[O-])cc1 | – | inconclusive: 10.4 µM [inhibitor, single point] |
| C/C(=N\NC(=O)c1ccc(Cl)cc1)c1cccc(NC(=O)C(C)C)c1 | inactive: 74.8% | – |
| Cn1ncc2c(Nc3cccc(Cl)c3)nc(Nc3cccc(Cl)c3)nc21 | – | active: 2.94 µM |
| COc1ccc(NC(=O)COc2ccc(C(=O)NCc3cccnc3)cc2OC)cc1 | – | inconclusive: 18.5 µM [inhibitor, single point] |
| O=C(NCC(c1ccco1)N1CCN(c2ccccc2)CC1)c1ccc2c(c1)OCO2 (centres undefined) | inactive: 36.3% | – |
| CCS(=O)(=O)N1CCN(Cc2ccccc2OC)CC1 | – | inconclusive: 18.5 µM [inhibitor, single point] |
| Cc1ccc(S(=O)(=O)N2CCN(C(=O)COC(=O)c3ccccn3)CC2)c(C)c1 | inactive: 7.34% | – |
| COc1cc(NC(=O)Cc2ccc(Cl)cc2)ccc1NC(=O)c1ccco1 | – | inconclusive: 0.104 µM [inhibitor, full curve, poor fit] |
| COC(=O)c1ccc(-n2c(C)ccc2-c2ccccc2)cc1 | – | inconclusive: 0.586 µM [inhibitor, full curve, poor fit] |
| O=C(O)C1CCCN(S(=O)(=O)c2ccc(-c3ccc(=O)[nH]n3)s2)C1 (centres undefined) | – | inconclusive: 18.5 µM [inhibitor, single point] |
| O=C(NCc1ccco1)c1ccc(COc2ccc(Cl)cc2)cc1 | – | inconclusive: 11.7 µM [inhibitor, partial curve, poor fit] |
| COc1cc(COc2ccc3c(C)c(CC(=O)O)c(=O)oc3c2C)cc(OC)c1OC | – | inconclusive: 9.28 µM [inhibitor, single point] |
| Cc1cc(=O)oc2c3c(cc(OCC(=O)NCCC(=O)N[C@@H](C)C(=O)O)c12)OC(C)(C)CC3 | – | inconclusive: 1.04 µM [inhibitor, partial curve, poor fit] |
| CCOc1ccc(N2C(=O)/C(=C/c3ccco3)C(=O)NC2=S)cc1 | – | inconclusive: 18.5 µM [inhibitor, single point] |
| Cc1ccc2nc(SCC(=O)NCc3ccccc3)nc(=O)n2c1 | inactive: 48.8% | – |
| CCCC(C(=O)Nc1ccc(S(=O)(=O)N2CCCC2)cc1)c1ccccc1 (centres undefined) | – | inconclusive: 18.5 µM [inhibitor, single point] |
| Cc1cn(-c2ccccc2)c(C)c1/C=N\Nc1nc(N2CCOCC2)nc(N2CCOCC2)n1 | inactive: 6.06% | – |
| COc1ccc(NC2CCCN(C(=O)c3ccc4[nH]c(C)c(C)c4c3)C2)cc1OC (centres undefined) | inactive: 13.8% | – |
| COc1ccccc1NC(=O)CC1S/C(=N/N=C(\C)C2CCCCC2)NC1=O (centres undefined) | inactive: -67.9% | – |
